{"source": "patent US11385234B2", "about": "“Methods and systems for detecting an analyte or classifying a sample” (Commonwealth Scientific and Industrial Research Organisation, priority 2012, dated 2022)", "key": {"GFP^2-RG-RLuc biosensor": {"test_system": "GFP^2-RG-RLuc biosensor", "assay": "On-chip (Y-shape microchannel) BRET^H thrombin assay", "format": "biochemical"}, "[1]": {"test_system": "BRET^2 based thrombin biosensor", "assay": "Real-time on-chip thrombin sensing, side-by-side vs pancake stack network", "format": "biochemical", "conditions": "50 μl per hour each input arm"}, "BRET thrombin biosensor": {"test_system": "BRET thrombin biosensor", "conditions": "Dacres et al. 2009a; cited from earlier work"}}, "data": [{"substance": "thrombin", "values": [{"measurement": "detection limit for thrombin, microchip-based technique", "setting": "GFP^2-RG-RLuc biosensor; 3.0 μM fusion protein, 58.6 μM native coelenterazine, 20 μl/h, x=2.1 mm", "result": 27, "unit": "pM"}, {"measurement": "sensitivity to changing thrombin concentrations, microfluidic vs microplate (gradients of calibrations)", "setting": "GFP^2-RG-RLuc biosensor; low thrombin concentration region", "result": 4.7, "unit": "times"}, {"measurement": "lowest concentration of thrombin observable in real time, side-by-side network", "setting": "[1]; 120 seconds", "result": 540, "unit": "nM"}, {"measurement": "lowest concentration of thrombin detected, pancake stack network", "setting": "[1]; 478 second residence time, lowest concentration tested", "result": 14, "unit": "nM"}, {"measurement": "detection limit for thrombin, BRET^1 microplate-based assay", "setting": "BRET thrombin biosensor", "result": 53, "unit": "µM"}, {"measurement": "detection limit for thrombin, BRET^2 microplate-based assay", "setting": "BRET thrombin biosensor", "result": 15, "unit": "µM"}]}]}
